We go through 10 compounds from PubChem BioAssay AID256 (DTP/NCI, 2004).

This test deals with CD2F1 mice, L1210 leukemia ip, survival T/C. As to the kind of experiment: NCI In Vivo Anticancer Drug Screen. Data for tumor model L1210 Leukemia (intraperitoneal) in CD2F1 (CDF1) mice. To be noted: higher T/C = longer survival. The procedure, abridged:
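Antitumor effect is scored in animals hosting a serially transplanted tumor. Values compare compound-dosed animals against vehicle-only controls as a simple quotient.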

The mark [1] stands for this setting: T/C endpoint: mean survival time, dose: 100.0 mg/kg/injection, schedule: Q01DX009 (ip), vehicle: saline with Tween-80.
The mark [2] stands for this setting: T/C endpoint: mean survival time, dose: 200.0 mg/kg/injection, schedule: Q04DX003 (ip), vehicle: saline with Tween-80.
[3] abbreviates: T/C endpoint: mean survival time, dose: 400.0 mg/kg/injection, schedule: Q04DX003 (ip), vehicle: saline with Tween-80.
The mark [4] stands for this setting: T/C endpoint: mean survival time, dose: 200.0 mg/kg/injection, schedule: Q01DX009 (ip), vehicle: water.

The list shows only some results of the screen, not a fair sample: it is rich in T/C values a quarter to a half above the control, in often repeated tests (any T/C) and in doses without a T/C. Other doses and runs of a compound stand elsewhere. T/C is the treated group as % of the vehicle group. Some doses have a count of surviving animals in place of a T/C: the source files T/C as zero there, which appears to mark a toxic dose or a test without result, not a measured value. Some survivor counts are full or nearly so, which does not show that the dose was tolerated: survival well below the control is almost never listed, so the zero probably covers shortened survival too. Survivors were counted at the toxicity check, usually on the fifth day, unless a day is given; later deaths do not show. Schedule codes are those of the source, read here as Q, the interval in days (D) or hours (H), X, the number of doses. Some entries were tested several times; the results are listed from low to high. Where survival is the endpoint, this PubChem deposit counts one and a half times the control or more as active, and values a quarter to a half above the control carry no call in these data; other NCI protocols may use other cut-offs. Some T/C values are followed by the survivors on the day toxicity was checked, most often the fifth; where none is given, no animal had died by that day.

For `CN(C)CCN1C(=O)c2cccc3cc(N)cc(c23)C1=O`, the T/C runs as follows: (T/C endpoint: mean survival time, dose: 8.0 mg/kg/injection, schedule: Q01DX009 (ip), vehicle: saline with Tween-80) 125 and 136 % of control; (T/C endpoint: median survival time, dose: 3.2 mg/kg/injection, schedule: Q01DX009 (ip), vehicle: saline with Tween-80) 132 % of control; (T/C endpoint: median survival time, dose: 4.04 mg/kg/injection, schedule: Q03HX024 (ip), vehicle: water) 127 % of control; (T/C endpoint: median survival time, dose: 4.7 mg/kg/injection, schedule: Q01DX009 (ip), vehicle: saline with Tween-80) 128 % of control; (T/C endpoint: median survival time, dose: 4.7 mg/kg/injection, schedule: Q01DX009 (ip), vehicle: saline) 128 % of control; (T/C endpoint: median survival time, dose: 7.0 mg/kg/injection, schedule: Q01DX009 (ip), vehicle: saline with Tween-80, evaluated on day 30) 133 % of control. For the same compound, the T/C is 135 % of control (T/C endpoint: median survival time, dose: 7.0 mg/kg/injection, schedule: Q01DX009 (ip), vehicle: saline with Tween-80, evaluated on day 45); 139 % of control (T/C endpoint: median survival time, dose: 7.1 mg/kg/injection, schedule: Q01DX009 (ip), vehicle: saline); 131 % of control (T/C endpoint: median survival time, dose: 7.1 mg/kg/injection, schedule: Q01DX009 (ip), vehicle: water); 133 % of control (T/C endpoint: median survival time, dose: 8.0 mg/kg/injection, schedule: Q01DX009 (ip), vehicle: acid diluted with saline); 130 % of control (T/C endpoint: median survival time, dose: 8.0 mg/kg/injection, schedule: Q01DX009 (ip), vehicle: saline with Tween-80); 138 % of control [9 of 10 alive] (T/C endpoint: median survival time, dose: 8.12 mg/kg/injection, schedule: Q03HX008 (ip), vehicle: water). Further, the T/C was 128 % of control (T/C endpoint: median survival time, dose: 10.7 mg/kg/injection, schedule: Q01DX009 (ip), vehicle: saline with Tween-80); 140 % of control (T/C endpoint: median survival time, dose: 10.7 mg/kg/injection, schedule: Q01DX009 (ip), vehicle: water); 126 % of control (T/C endpoint: median survival time, dose: 12.78 mg/kg/injection, schedule: Q01DX005 (ip), vehicle: saline with Tween-80); 144 % of control (T/C endpoint: median survival time, dose: 12.78 mg/kg/injection, schedule: Q01DX005 (ip), vehicle: water); 125 % of control (T/C endpoint: median survival time, dose: 12.96 mg/kg/injection, schedule: Q01DX009 (oral), vehicle: water); 127 % of control (T/C endpoint: median survival time, dose: 14.5 mg/kg/injection, schedule: Q01DX005 (iv), vehicle: saline with Tween-80). Moreover, the T/C is 134 % of control (T/C endpoint: median survival time, dose: 14.5 mg/kg/injection, schedule: Q01DX005 (iv), vehicle: water); 181 and 206 % of control (T/C endpoint: median survival time, dose: 16.0 mg/kg/injection, schedule: Q01DX009 (ip), vehicle: saline with Tween-80, evaluated on day 30); 200 % of control (T/C endpoint: median survival time, dose: 16.0 mg/kg/injection, schedule: Q01DX009 (ip), vehicle: saline with Tween-80, evaluated on day 45); 161 % of control (T/C endpoint: median survival time, dose: 16.0 mg/kg/injection, schedule: Q01DX009 (ip), vehicle: saline with Tween-80, evaluated on day 60); 143 % of control (T/C endpoint: median survival time, dose: 19.3 mg/kg/injection, schedule: Q01DX009 (oral), vehicle: water); 139 % of control (T/C endpoint: median survival time, dose: 21.7 mg/kg/injection, schedule: Q04DX003 (ip), vehicle: water). Moreover, the T/C (T/C endpoint: median survival time, dose: 24.0 mg/kg/injection, schedule: Q01DX009 (ip), vehicle: acid diluted with saline) was 137 % of control; the T/C (T/C endpoint: median survival time, dose: 24.0 mg/kg/injection, schedule: Q01DX009 (ip), vehicle: saline with Tween-80) was 143 % of control; the T/C (T/C endpoint: median survival time, dose: 32.5 mg/kg/injection, schedule: Q01DX001 (iv), vehicle: water) was 126 % of control; the T/C (T/C endpoint: median survival time, dose: 36.0 mg/kg/injection, schedule: Q01DX009 (ip), vehicle: saline with Tween-80) is 127 % of control; the T/C (T/C endpoint: median survival time, dose: 42.3 mg/kg/injection, schedule: Q01DX001 (ip), vehicle: water) is 126 % of control; the T/C (T/C endpoint: median survival time, dose: 48.5 mg/kg/injection, schedule: Q01DX001 (iv), vehicle: water) was 131 % of control. Further, the T/C by setting is: (T/C endpoint: median survival time, dose: 63.9 mg/kg/injection, schedule: Q01DX001 (ip), vehicle: water) 131 % of control; (T/C endpoint: median survival time, dose: 72.4 mg/kg/injection, schedule: Q01DX001 (iv), vehicle: water) 137 % of control [7 of 10 alive]; (T/C endpoint: median survival time, dose: 96.3 mg/kg/injection, schedule: Q01DX001 (ip), vehicle: water) 140 % of control. Further, the survivor count (T/C endpoint: median survival time, dose: 18.1 mg/kg/injection, schedule: Q03HX008 (ip), vehicle: water) is 7 of 10; the survivor count (T/C endpoint: median survival time, dose: 27.0 mg/kg/injection, schedule: Q03HX008 (ip), vehicle: water) is on record as 8 of 10; the survivor count (T/C endpoint: median survival time, dose: 32.0 mg/kg/injection, schedule: Q01DX009 (ip), vehicle: acid diluted with saline) is recorded as 6 of 6; the survivor count (T/C endpoint: median survival time, dose: 43.2 mg/kg/injection, schedule: Q01DX005 (ip), vehicle: water) is given as 10 of 10; the survivor count (T/C endpoint: median survival time, dose: 64.3 mg/kg/injection, schedule: Q01DX009 (oral), vehicle: water) is on record as 8 of 10; the survivor count (T/C endpoint: median survival time, dose: 96.0 mg/kg/injection, schedule: Q01DX009 (oral), vehicle: water) is listed as 8 of 10. Besides, the survivor count was 0 of 10 (T/C endpoint: median survival time, dose: 108.0 mg/kg/injection, schedule: Q01DX001 (iv), vehicle: water); 5 of 10 (T/C endpoint: median survival time, dose: 144.0 mg/kg/injection, schedule: Q01DX001 (ip), vehicle: water); 0 of 10 (T/C endpoint: median survival time, dose: 216.0 mg/kg/injection, schedule: Q01DX001 (ip), vehicle: water).

Consider `Cc1c2ccccc2cc2c1ccc1cccc(F)c12`, for which the survivor count (T/C endpoint: median survival time, dose: 100.0 mg/kg/injection, schedule: Q04DX003 (ip), vehicle: saline with Tween-80) is on record as 3 of 3.

In the case of `C1CC1C(=NN=C(C1CC1)C1CC1)C1CC1`, the survivor count runs as follows: under setting [1], 5 of 6; under setting [2], 5 of 6; under setting [3], 6 of 6.

As for `O=C(O)/C(=C\c1cccc([N+](=O)[O-])c1)c1ccccc1`, the survivor count by setting is: (T/C endpoint: mean survival time, dose: 400.0 mg/kg/injection, schedule: Q01DX001 (ip), vehicle: saline with Tween-80) 2 of 6; (T/C endpoint: mean survival time, dose: 400.0 mg/kg/injection, schedule: Q01DX009 (ip), vehicle: saline with Tween-80) 1 of 6 and 2 of 3.

Consider `O=C(O)C[N-]c1ccccc1.O=C(O)C[N-]c1ccccc1.[Ni+2]`, for which the survivor count is 4 of 6 (T/C endpoint: mean survival time, dose: 50.0 mg/kg/injection, schedule: Q01DX009 (ip), vehicle: saline with Tween-80); 0 of 6 under setting [1]; 3 of 6 under setting [2].

With `CC(NC1CCCCC1)c1ccc(O)cc1O` (stereo unspecified), the survivor count (T/C endpoint: mean survival time, dose: 300.0 mg/kg/injection, schedule: Q01DX001 (ip), vehicle: other) is on record as 0 of 6.

With `CCCCn1cnc2c(SSc3ncnc4c3ncn4CCCC)ncnc21`, the T/C is, setting by setting: (T/C endpoint: mean survival time, dose: 166.0 mg/kg/injection, schedule: Q04DX003 (ip), vehicle: saline with Tween-80) 133 % of control [4 of 6 alive]; under setting [2], 127 [4 of 6 alive] and 132 % of control [5 of 6 alive]; under setting [3], 135 % of control [5 of 6 alive].

On to `COc1ccc(/C=C2\SC(=O)NC2=O)cc1`, for which the survivor count under setting [3] is listed as 0 of 3.

On to `CCCCCCCCCCC(=O)OCC1OC2C(Oc3nc(=N)ccn32)C1OC(=O)CCCCCCCCCC` (stereo unspecified), for which, under setting [4], the survivor count is reported as 2 of 6.

As to `CCCCCCCCCCCCCCCC(=O)N(CCCN(C)C)CCCN(CCCN(C)C)C(=O)CCCCCCCCCCCCCCC`, the survivor count reads like this: (T/C endpoint: mean survival time, dose: 25.0 mg/kg/injection, schedule: Q01DX009 (ip), vehicle: water) 3 of 6; (T/C endpoint: mean survival time, dose: 50.0 mg/kg/injection, schedule: Q01DX009 (ip), vehicle: water) 3 of 6; (T/C endpoint: mean survival time, dose: 100.0 mg/kg/injection, schedule: Q01DX009 (ip), vehicle: water) 0 of 6; under setting [4], 0 of 6.
